{"source": "ChEMBL document CHEMBL1687827", "about": "“Profiling the Aspergillus fumigatus proteome in response to caspofungin” (2011)", "type_in_all_cases": "functional", "key": {"Aspergillus fumigatus [1]": {"tested_on": "Aspergillus fumigatus", "experiment": "Induction of change in cell wall protein, putative gene expression in drug-susceptible Aspergillus fumigatus KU80 delta-akuB at 0.12 ug/ml after 48 hrs in YPD medium by microarray analysis relative to control"}, "Aspergillus fumigatus [2]": {"tested_on": "Aspergillus fumigatus", "experiment": "Induction of change in cytosolic large ribosomal subunit protein L30 protein level in iTRAQ114 labelled secreted fraction of drug-susceptible Aspergillus fumigatus KU80 delta-akuB at 0.12 ug/ml after 24 hrs in YPD medium by MS (MS/MS) analysis relative to control"}, "Aspergillus fumigatus [3]": {"tested_on": "Aspergillus fumigatus", "experiment": "Induction of change in Mitochondrial hypoxia-responsive domain protein level in iTRAQ114 labelled cell wall fraction of drug-susceptible Aspergillus fumigatus KU80 delta-akuB at 0.12 ug/ml after 24 hrs in YPD medium by MS (MS/MS) analysis relative to control"}, "Aspergillus fumigatus [4]": {"tested_on": "Aspergillus fumigatus", "experiment": "Induction of change in ribosomal protein L14 gene expression in drug-susceptible Aspergillus fumigatus KU80 delta-akuB at 0.12 ug/ml after 24 hrs in YPD medium by microarray analysis relative to control"}, "Aspergillus fumigatus [5]": {"tested_on": "Aspergillus fumigatus", "experiment": "Induction of change in ribosomal protein L26 protein level in iTRAQ114 labelled secreted fraction of drug-susceptible Aspergillus fumigatus KU80 delta-akuB at 0.12 ug/ml after 24 hrs in YPD medium by MS (MS/MS) analysis relative to control"}, "Aspergillus fumigatus [6]": {"tested_on": "Aspergillus fumigatus", "experiment": "Induction of change in hypothetical protein level in iTRAQ-118 labelled cell wall fraction of drug-susceptible Aspergillus fumigatus KU80 delta-akuB at 0.12 ug/ml after 24 hrs in YPD medium by MS (MS/MS) analysis relative to control"}, "Aspergillus fumigatus [7]": {"tested_on": "Aspergillus fumigatus", "experiment": "Induction of change in 40S ribosomal protein S6 protein level in iTRAQ114 labelled cell wall fraction of drug-resistant Aspergillus fumigatus EMFR-S678P at 0.12 ug/ml after 24 hrs in YPD medium by MS (MS/MS) analysis relative to control"}, "Aspergillus fumigatus [8]": {"tested_on": "Aspergillus fumigatus", "experiment": "Induction of change in siderochrome-iron transporter, putative gene expression in drug-susceptible Aspergillus fumigatus KU80 delta-akuB at 0.12 ug/ml after 24 hrs in YPD medium by microarray analysis relative to control"}, "Aspergillus fumigatus [9]": {"tested_on": "Aspergillus fumigatus", "experiment": "Induction of change in Ctr copper transporter family gene expression in drug-susceptible Aspergillus fumigatus KU80 delta-akuB at 0.12 ug/ml after 24 hrs in YPD medium by microarray analysis relative to control"}, "Aspergillus fumigatus [10]": {"tested_on": "Aspergillus fumigatus", "experiment": "Induction of change in ribosomal protein S14.e protein level in iTRAQ114 labelled cell wall fraction of drug-susceptible Aspergillus fumigatus KU80 delta-akuB at 0.12 ug/ml after 24 hrs in YPD medium by MS (MS/MS) analysis relative to control"}, "Aspergillus fumigatus [11]": {"tested_on": "Aspergillus fumigatus", "experiment": "Induction of change in plasma membrane H -ATPase gene expression in drug-susceptible Aspergillus fumigatus KU80 delta-akuB at 0.12 ug/ml after 48 hrs in YPD medium by microarray analysis relative to control"}, "Aspergillus fumigatus [12]": {"tested_on": "Aspergillus fumigatus", "experiment": "Induction of change in nascent polypeptide-associated complex (NAC) subunit, putative protein level in iTRAQ-116 labelled secreted fraction of drug-susceptible Aspergillus fumigatus KU80 delta-akuB at 0.12 ug/ml after 48 hrs in YPD medium by MS (MS/MS) analysis relative to control"}, "Aspergillus fumigatus [13]": {"tested_on": "Aspergillus fumigatus", "experiment": "Induction of change in secreted dipeptidyl peptidase DppV protein level in iTRAQ-118 labelled cell wall fraction of drug-susceptible Aspergillus fumigatus KU80 delta-akuB at 0.12 ug/ml after 24 hrs in YPD medium by MS (MS/MS) analysis relative to control"}, "Aspergillus fumigatus [14]": {"tested_on": "Aspergillus fumigatus", "experiment": "Induction of change in cytosolic large ribosomal subunit protein L30 protein level in iTRAQ114 labelled cell wall fraction of drug-susceptible Aspergillus fumigatus KU80 delta-akuB at 0.12 ug/ml after 24 hrs in YPD medium by MS (MS/MS) analysis relative to control"}, "Aspergillus fumigatus [15]": {"tested_on": "Aspergillus fumigatus", "experiment": "Induction of change in hypothetical gene expression in drug-susceptible Aspergillus fumigatus KU80 delta-akuB at 0.12 ug/ml after 24 hrs in YPD medium by microarray analysis relative to control"}, "Aspergillus fumigatus [16]": {"tested_on": "Aspergillus fumigatus", "experiment": "Induction of change in 60S ribosomal protein P0 protein level in iTRAQ114 labelled cell wall fraction of drug-resistant Aspergillus fumigatus EMFR-S678P at 0.12 ug/ml after 24 hrs in YPD medium by MS (MS/MS) analysis relative to control"}, "Aspergillus fumigatus [17]": {"tested_on": "Aspergillus fumigatus", "experiment": "Induction of change in ribosomal protein L16a protein level in iTRAQ114 labelled cell wall fraction of drug-susceptible Aspergillus fumigatus KU80 delta-akuB at 0.12 ug/ml after 24 hrs in YPD medium by MS (MS/MS) analysis relative to control"}, "Aspergillus fumigatus [18]": {"tested_on": "Aspergillus fumigatus", "experiment": "Induction of change in fructose-bisphosphate aldolase, class II gene expression in drug-susceptible Aspergillus fumigatus KU80 delta-akuB at 0.12 ug/ml after 48 hrs in YPD medium by microarray analysis relative to control"}, "Aspergillus fumigatus [19]": {"tested_on": "Aspergillus fumigatus", "experiment": "Induction of change in 60S ribosomal protein L44 protein level in iTRAQ114 labelled cell wall fraction of drug-resistant Aspergillus fumigatus EMFR-S678P at 0.12 ug/ml after 24 hrs in YPD medium by MS (MS/MS) analysis relative to control"}, "Aspergillus fumigatus [20]": {"tested_on": "Aspergillus fumigatus", "experiment": "Induction of change in glucosamine-fructose-6-phosphate aminotransferase protein level in iTRAQ121 labelled cell wall fraction of drug-susceptible Aspergillus fumigatus KU80 delta-akuB at 0.12 ug/ml after 48 hrs in YPD medium by MS (MS/MS) analysis relative to control"}, "Aspergillus fumigatus [21]": {"tested_on": "Aspergillus fumigatus", "experiment": "Induction of change in outer mitochondrial membrane protein porin protein level in iTRAQ-116 labelled cell wall fraction of drug-susceptible Aspergillus fumigatus KU80 delta-akuB at 0.12 ug/ml after 48 hrs in YPD medium by MS (MS/MS) analysis relative to control"}, "Aspergillus fumigatus [22]": {"tested_on": "Aspergillus fumigatus", "experiment": "Induction of change in hypothetical protein level in iTRAQ-116 labelled secreted fraction of drug-susceptible Aspergillus fumigatus KU80 delta-akuB at 0.12 ug/ml after 48 hrs in YPD medium by MS (MS/MS) analysis relative to control"}, "Aspergillus fumigatus [23]": {"tested_on": "Aspergillus fumigatus", "experiment": "Induction of change in extracellular conserved serine-rich protein level in iTRAQ-116 labelled secreted fraction of drug-susceptible Aspergillus fumigatus KU80 delta-akuB at 0.12 ug/ml after 48 hrs in YPD medium by MS (MS/MS) analysis relative to control"}, "Aspergillus fumigatus [24]": {"tested_on": "Aspergillus fumigatus", "experiment": "Induction of change in 40S ribosomal protein S8e protein level in iTRAQ-118 labelled cell wall fraction of drug-resistant Aspergillus fumigatus EMFR-S678P at 0.12 ug/ml after 24 hrs in YPD medium by MS (MS/MS) analysis relative to control"}, "Aspergillus fumigatus [25]": {"tested_on": "Aspergillus fumigatus", "experiment": "Induction of change in tripeptidyl-peptidase (TppA), putative protein level in iTRAQ-118 labelled cell wall fraction of drug-susceptible Aspergillus fumigatus KU80 delta-akuB at 0.12 ug/ml after 24 hrs in YPD medium by MS (MS/MS) analysis relative to control"}, "Aspergillus fumigatus [26]": {"tested_on": "Aspergillus fumigatus", "experiment": "Induction of change in 60S ribosomal protein L9 b protein level in iTRAQ114 labelled cell wall fraction of drug-susceptible Aspergillus fumigatus KU80 delta-akuB at 0.12 ug/ml after 24 hrs in YPD medium by MS (MS/MS) analysis relative to control"}}, "note": "Further values from the same series stand in other lists.", "data": [{"smiles": "CC[C@H](C)C[C@H](C)CCCCCCCCC(=O)N[C@H]1C[C@@H](O)[C@@H](NCCN)NC(=O)[C@@H]2[C@@H](O)CCN2C(=O)[C@H]([C@H](O)CCN)NC(=O)[C@H]([C@H](O)[C@@H](O)c2ccc(O)cc2)NC(=O)[C@@H]2C[C@@H](O)CN2C(=O)[C@H]([C@@H](C)O)NC1=O", "note": "[CASPOFUNGIN]", "values": [{"measurement": "fold change (FC)", "setting": "Aspergillus fumigatus [1]", "result": -2.1}, {"measurement": "fold change (FC)", "setting": "Aspergillus fumigatus [2]", "result": 1.4}, {"measurement": "fold change (FC)", "setting": "Aspergillus fumigatus [3]", "result": -6.1}, {"measurement": "fold change (FC)", "setting": "Aspergillus fumigatus [4]", "result": 4.7}, {"measurement": "fold change (FC)", "setting": "Aspergillus fumigatus [5]", "result": 1.2}, {"measurement": "fold change (FC)", "setting": "Aspergillus fumigatus [6]", "result": 5.3}, {"measurement": "fold change (FC)", "setting": "Aspergillus fumigatus [7]", "result": -1.07}, {"measurement": "fold change (FC)", "setting": "Aspergillus fumigatus [8]", "result": -4.8}, {"measurement": "fold change (FC)", "setting": "Aspergillus fumigatus [9]", "result": -5}, {"measurement": "fold change (FC)", "setting": "Aspergillus fumigatus [10]", "result": 1.5}, {"measurement": "fold change (FC)", "setting": "Aspergillus fumigatus [11]", "result": -2.5}, {"measurement": "fold change (FC)", "setting": "Aspergillus fumigatus [12]", "result": -16}, {"measurement": "fold change (FC)", "setting": "Aspergillus fumigatus [13]", "result": -2.3}, {"measurement": "fold change (FC)", "setting": "Aspergillus fumigatus [14]", "result": 1.6}, {"measurement": "fold change (FC)", "setting": "Aspergillus fumigatus [15]", "result": -5.3}, {"measurement": "fold change (FC)", "setting": "Aspergillus fumigatus [16]", "result": -1.23}, {"measurement": "fold change (FC)", "setting": "Aspergillus fumigatus [17]", "result": 1.9}, {"measurement": "fold change (FC)", "setting": "Aspergillus fumigatus [18]", "result": -2.3}, {"measurement": "fold change (FC)", "setting": "Aspergillus fumigatus [19]", "result": 1.41}, {"measurement": "fold change (FC)", "setting": "Aspergillus fumigatus [20]", "result": 4}, {"measurement": "fold change (FC)", "setting": "Aspergillus fumigatus [21]", "result": -1.7}, {"measurement": "fold change (FC)", "setting": "Aspergillus fumigatus [22]", "result": ">-16"}, {"measurement": "fold change (FC)", "setting": "Aspergillus fumigatus [23]", "result": 2.6}, {"measurement": "fold change (FC)", "setting": "Aspergillus fumigatus [24]", "result": -1.07}, {"measurement": "fold change (FC)", "setting": "Aspergillus fumigatus [25]", "result": -2.3}, {"measurement": "fold change (FC)", "setting": "Aspergillus fumigatus [26]", "result": 1.7}]}]}
